The target of this assay is Axl receptor tyrosine kinase (human (endogenous in DMPM tumour tissue)) (UniProt P30530). In words: co-IP; 1 mg of total protein lysate from frozen DMPM surgical samples for IP, 20 µl of immunoprecipitated protein for WB; endogenous receptors.

No constants are given. Whether binding was seen depends on the method and setting. Binding seen in cells or lysates may run through a third protein. Some binding calls cover weakened binding; strength is not graded here.

In the case of “epidermal growth factor receptor (from UniProt P00533 25-1210)”, the binding result is listed as “binds”.

These data come from publication PMC6888071.
